PubChem BioAssay AID743454 – Peter MacCallum Cancer Centre | 2014
In all, the deposit lists about 18,000 reagents; shown is an unselected part. Of all reagents, 450 (2.5%) were called active. 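Single biological run; no consistent viability z cut-off exists, so the class columns, not z-scores, define the calls.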 A number with no mark means an inactive call.

- Screen: 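Genes whose loss kills vorinostat-resistant colon cancer cells under vorinostat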 (primary screen)
- Cells: human HCT116-VR colon cancer cells, selected for vorinostat resistance
- Knock-down reagent: siRNA pool against human genes, 40 nM siRNA pool
- Time to read-out: vorinostat for 24 h, read-out about 72 h after transfection
- Conditions: vorinostat at 2.5 µM final
- Read-out: 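Cell viability by CellTiter-Fluor and caspase 3/7 activity by luminescence, each scaled to mock wells per plate, duplicates averaged, then robust z-scored over all plates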
- Scale: viability robust z-score: higher = more viable cells than screen typical; caspase robust z-score: higher = more caspase 3/7 activity than screen typical
- Call rule: 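Hits are knock-downs in viability class RV1/RV2 or caspase class CA1/CA2, excluding ones that killed cells in the no-drug cell-count arm; hits then retested with single siRNAs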

The first 9 records as a preview:
no.	target gene	PubChem SID	viability hit class	caspase hit class	viability robust z-score	caspase robust z-score
1	ESF1 (ESF1 nucleolar pre-rRNA processing protein)	SID134319283	no change	no change	-0.61	-0.98
2	SPOCK3	SID152152717	no change	no change	0.2	0.08
3	CSDE1 (cold shock domain containing E1)	SID152151194	no change	no change	1.15	0.3
4	OR6C76 (olfactory receptor family 6 subfamily C member 76)	SID152153878	no change	no change	-0.22	1.07
5	COASY (Coenzyme A synthase)	SID56479117	no change	no change	-1.08	0.96
6	MAST3 (microtubule associated serine/threonine kinase 3)	SID152151496	no change	no change	-0.24	-0.22
7	SEMA3F (semaphorin 3F)	SID135623366	no change	no change	-0.14	-1.16
8	SPRY1 (sprouty RTK signaling antagonist 1)	SID134326900	no change	no change	0.01	1.92
9	CES3 (carboxylesterase 3)	SID135625565	RV2 (reduced viability) (active)	no change	-3.85	3.27

The listing, from the start:
no.	target gene	PubChem SID	viability hit class	caspase hit class	viability robust z-score	caspase robust z-score
1	ESF1 (ESF1 nucleolar pre-rRNA processing protein)	SID134319283	no change	no change	-0.61	-0.98
2	SPOCK3	SID152152717	no change	no change	0.2	0.08
3	CSDE1 (cold shock domain containing E1)	SID152151194	no change	no change	1.15	0.3
4	OR6C76 (olfactory receptor family 6 subfamily C member 76)	SID152153878	no change	no change	-0.22	1.07
5	COASY (Coenzyme A synthase)	SID56479117	no change	no change	-1.08	0.96
6	MAST3 (microtubule associated serine/threonine kinase 3)	SID152151496	no change	no change	-0.24	-0.22
7	SEMA3F (semaphorin 3F)	SID135623366	no change	no change	-0.14	-1.16
8	SPRY1 (sprouty RTK signaling antagonist 1)	SID134326900	no change	no change	0.01	1.92
9	CES3 (carboxylesterase 3)	SID135625565	RV2 (reduced viability) (active)	no change	-3.85	3.27
10	PALM2AKAP2 (PALM2 and AKAP2 fusion)	SID135622905	no change	no change	0.42	0.73
11	PALM2AKAP2 (PALM2 and AKAP2 fusion)	SID135625364	no change	no change	0.97	3.85
12	PALM2AKAP2 (PALM2 and AKAP2 fusion)	SID152153662	no change	no change	0.76	0.64
13	TXNDC11 (thioredoxin domain containing 11)	SID152150225	no change	no change	0.44	2.07
14	SLC5A4	SID134312638	no change	no change	1.1	-0.44
15	CAPZA1 (capping actin protein of muscle Z-line subunit alpha 1)	SID152150259	no change	no change	-0.92	-0.4
16	DTWD1 (DTW motif tRNA-uridine aminocarboxypropyltransferase 1)	SID152155467	no change	no change	-0.16	-0.64
17	PCBP4 (poly(rC) binding protein 4)	SID152153350	no change	no change	0.94	-0.55
18	FASTKD4 (FASTK mitochondrial RNA regulator 4)	SID134315057	no change	no change	0.81	0.75
19	SCGB3A2 (secretoglobin family 3A member 2)	SID152155138	no change	no change	-0.28	-0.52
20	HTR3B (5-hydroxytryptamine receptor 3B)	SID134311623	no change	no change	-0.55	0.66
21	PHETA1 (PH domain containing endocytic trafficking adaptor 1)	SID152154501	no change	no change	-0.16	5.08
22	SLC22A8	SID135621374	no change	no change	1.12	2.49
23	GINS3 (GINS complex subunit 3)	SID134320229	no change	no change	-0.58	-0.89
24	GSPT2 (G1 to S phase transition 2)	SID134324107	no change	no change	1.21	0.14
25	SLC16A8	SID135621366	no change	no change	0.02	-0.56
26	CHGB (chromogranin B)	SID135622157	no change	no change	0.78	0.04
27	LY6D (lymphocyte antigen 6 family member D)	SID135622349	no change	no change	0.02	0.2
28	SEPSECS	SID134319595	no change	no change	0.27	-0.75
29	SGCG (sarcoglycan gamma)	SID134315436	no change	no change	0.51	-0.06
30	TMEM80 (transmembrane protein 80)	SID152151365	no change	no change	0.21	-0.88
31	RHEBL1 (RHEB like 1)	SID134313632	no change	no change	0.93	0.01
32	SCAF1 (SR-related CTD associated factor 1)	SID135625059	no change	no change	-0.22	0.44
33	RAX2 (retina and anterior neural fold homeobox 2)	SID135623097	no change	no change	-1.48	4.21
34	SLC6A7	SID152147030	no change	no change	-0.66	-1.02
35	LAMA1 (laminin subunit alpha 1)	SID134316413	no change	no change	0.2	-1.06
36	IFT74 (intraflagellar transport 74)	SID135622771	no change	no change	0.23	-0.76
37	PSKH2 (protein serine kinase H2)	SID56479040	no change	no change	0.16	-0.38
38	TMEM217 (transmembrane protein 217)	SID134322593	no change	no change	0.31	2.34
39	FAM90A1 (family with sequence similarity 90 member A1)	SID152155034	no change	no change	0.27	3.28
40	HSPA13 (heat shock protein family A (Hsp70) member 13)	SID135622989	no change	no change	-0.96	0.12
41	VGLL4 (vestigial like family member 4)	SID135624371	no change	no change	0.46	-0.39
42	KRT33A (keratin 33A)	SID134316277	no change	no change	0.28	-1.05
43	MT1A (metallothionein 1A)	SID152147992	no change	no change	-0.95	1.64
44	CEL (carboxyl ester lipase)	SID135621664	no change	no change	0.8	0.38
45	GPR82 (G protein-coupled receptor 82)	SID134311042	no change	no change	-0.4	0.43
46	SLPI (secretory leukocyte peptidase inhibitor)	SID135622117	no change	no change	0.64	-0.69
47	OR6T1 (olfactory receptor family 6 subfamily T member 1)	SID135624576	no change (active)	CA2 (caspase activation)	-0.52	5.46
48	OR6C74 (olfactory receptor family 6 subfamily C member 74)	SID135625145	no change	no change	1	-1.08
49	STAG2 (STAG2 cohesin complex component)	SID152146952	no change	no change	0.2	-0.46
50	RPS15 (ribosomal protein S15)	SID152150699	no change	no change	-3.34	-1.19
51	INSL5 (insulin like 5)	SID152154330	no change	no change	-0.42	1.29
52	ZNF765 (zinc finger protein 765)	SID135622962	no change	no change	-0.36	0.44
53	TGM5 (transglutaminase 5)	SID135621811	no change (active)	CA1 (caspase activation)	-1.9	5.52
54	SHKBP1 (SH3KBP1 binding protein 1)	SID152156204	no change	no change	-0.47	-1.16
55	COL6A2 (collagen type VI alpha 2 chain)	SID152151396	no change	no change	-0.46	4.09
56	SLC22A13	SID134312493	no change	no change	-0.2	0.22
57	MMP19 (matrix metallopeptidase 19)	SID135620778	no change	no change	0.28	-0.08
58	RUNDC1 (RUN domain containing 1)	SID134321649	no change	no change	0.5	3.57
59	ZNF436 (zinc finger protein 436)	SID152154882	no change	no change	-0.42	-0.72
60	GPR88 (G protein-coupled receptor 88)	SID152150100	no change	no change	-0.07	0.48
61	MYO19 (myosin XIX)	SID135623285	no change	no change	0.5	-0.3
62	ZNF385A (zinc finger protein 385A)	SID134318140	no change	no change	0.02	-0.1
63	ENY2 (ENY2 transcription and export complex 2 subunit)	SID134322646	no change	no change	-1.09	3.99
64	MID1 (midline 1)	SID152154448	no change	no change	0.42	-0.64
65	SCN2B (sodium voltage-gated channel beta subunit 2)	SID152151643	no change	no change	-0.05	0.22
66	SPAG1 (sperm associated antigen 1)	SID134310389	RV2 (reduced viability) (active)	no change	-3.25	-0.08
67	FGF11 (fibroblast growth factor 11)	SID152150431	no change	no change	0.82	-0.69
68	TRIM25 (tripartite motif containing 25)	SID134311904	no change	no change	-0.94	1.08
69	BKGD (beta-keto-L-gulonate decarboxylase)	SID134320767	no change	no change	0.24	-0.79
70	KIAA0232	SID152150191	no change	no change	0.13	-0.65
71	TBC1D25 (TBC1 domain family member 25)	SID152149363	no change	no change	0.08	0.26
72	ZSCAN29 (zinc finger and SCAN domain containing 29)	SID152155035	no change	no change	0.6	-0.72
73	COL6A5 (collagen type VI alpha 5 chain)	SID152148616	no change	no change	0.05	-0.84
